This note sets out measurements from PMC3701704.

This assay deals with Zeste fused to the C terminus of GAL4 DNA binding domain (Drosophila). Description: two-hybrid; yeast strain pJ69-4A, Clontech plasmids; growth on media without tryptophan, leucine, histidine and adenine, and liquid culture beta-galactosidase assay; Mod(mdg4)-67.2 fragments on the GAL4 activating domain, Zeste on the GAL4 DNA binding domain.

Results are given in words; binding and its absence hold for the method and conditions named.

B1: Su(Hw) protein (yeast two-hybrid construct) (protein, UniProt P08970 1-941)
chain: MSASKEGKEKKGKLLGVENISPPKDKRPATRMKLLNDVGAGEDSEASTTTTTSRTPSNKQEKRGSVAGSRIKILNEEILGTPKTEKRGATKSTAPAASTVKILNEKKTPSATVTAVETTKIKTSPSKRKKMEHYVLQAVKSENTKADTTVTVVTEEDDTIDFILADDEEVVPGRIENNNGQEIVVTEDDEDLGEDGDEDGEDSSGKGNSSQTKIKEIVEHVCGKCYKTFRRVQSLKKHLEFCRYDSGYHLRKADMLKNLEKIEKDAVVMEKKDICFCCSESYDTFHLGHINCPDCPKSFKTQTSYERHIFITHSEFSDFPCSICNANLRSEALLALHEEQHKSRGKPYACKICGKDFTRSYHLKRHQKYSSCSSNETDTMSCKVCDRVFYRLDNLRSHLKQHLGTQVVKKPEYMCHTCKNCFYSLSTLNIHIRTHTGEKPFDCDLCDKKFSALVALKKHRRYHTGEKPYSCTVCNQAFAVKEVLNRHMKRHTGERPHKCDECGKSFIQATQLRTHSKTHIRPFPCEQCDEKFKTEKQLERHVKTHSRTKRPVFSCAECKRNFRTPALLKEHMDEGKHSPKQQRSSMRSAVKIMERTDCAICDKNFDSSDTLRRHIRTVHECDPDDIFGVEPHPSKRAKKDIESEEVVPVALNTSAGSLISSQTDGNGVVVREFLVDEGDGAAQTITLENETYTILPLDGAIEGEQLTDEAGVKPEAKKEEAQVSPVVKKEQRKSLAASLAAAIADNLEESCSEDDFSGEILTEEDIKLKENVGKLIDMLVDPPILKKYGWPNAPEETVLCKVIENCGHDLTKGGENYAELDYGSRMREYCKLLFTVVIHNDSIKSLLNNFPIDDVIEYVLGDEDQDEGGLDKDNESHSGDEEAVSVTGETKTNEIREKPEKKEVSAKSEKKEIVGKAVDKDNSEEVVRENKKKPVGEQEKA
For B1, the binding result is reported as “no binding”.
